Counter-ions that a name gives are not always drawn. Some of the results follow. Repeats in this data set agree poorly, so a single value says little.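 Cells: ReNCell VM human fetal ventral-midbrain neural progenitors, differentiated mitogen-free. Blinded raters compared doublecortin-stained (early neurons) or tyrosine hydroxylase-stained (dopaminergic neurons) images with untreated wells, where 0 means no change. After repeats and both raters were averaged, compounds scoring 2 or above became hits for retesting.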
What follows are compounds tested on ReNCell VM (assay: neuronal differentiation score (DCX+ cell fraction vs untreated, manual image score) (score (-3 to 3)); higher = more neuronal differentiation). Conditions: library: Tocriscreen; 2 uM; 2 weeks.

Compound	neuronal differentiation score
Cc1cc2nc3c(=O)[nH]c(=O)nc-3n(C)c2cc1C=O	inactive: 0
COc1ccc(CCN(C)CCCOc2ccc(S(=O)(=O)c3c(C(C)C)c4ccccc4n3C)cc2)cc1OC	inactive: -1
CCCCNC(=O)[C@@H]1Cc2ccccc2N1C(=O)[C@@H](N)CC [Butabindide oxalate]	inactive: 0
O=[N+]([O-])c1cccc2c[nH]nc12	inactive: 0
CN/C(=N\c1ccc(C2=NNC(=O)CC2C)cc1)NC#N (centres undefined) [Siguazodan]	inactive: 0

Each compound was assayed on ReNCell VM (assay: dopaminergic neuron differentiation score (TH+ cell fraction vs untreated, manual image score) (score (0 to 3)); higher = more TH+ dopaminergic neuron differentiation). Conditions: library: Prestwick; 2 uM; 4 weeks; BDNF 10 ng/ml + GDNF 10 ng/ml.

Compound	dopaminergic neuron differentiation score
COC(=O)C1=C(C#N)NC(C)=C(C(=O)OC(C)C)C1c1cccc([N+](=O)[O-])c1 (centres undefined) [Nilvadipine]	inactive: 0
C[N+]1(CCCCC[N+]2(C)CCCC2)CCCC1 [Pentolinium bitartrate]	inactive: 0
CCCCC(O)c1ccccc1 (centres undefined) [Fenipentol]	inactive: 0
CCN(CC)CCc1nc(-c2ccccc2)no1 [Oxalamine citrate salt]	inactive: 0
CC(=O)[C@H]1CC[C@H]2[C@@H]3C=CC4=CC(=O)CC[C@@]4(C)[C@@H]3CC[C@]12C [Dydrogesterone]	inactive: 0
CC(=O)O[C@H]1C[C@@H]2CC[C@@H]3[C@H](CC[C@@]4(C)[C@H]3C[C@H]([N+]3(C)CCCCC3)[C@@H]4OC(C)=O)[C@@]2(C)C[C@@H]1N1CCCCC1 [Vecuronium bromide]	inactive: 0
CC(C)(C)NC[C@@H](O)COc1cccc2c1CCCC2=O [(+) -Levobunolol hydrochloride]	inactive: 0
CCCSc1ccc2[nH]c(NC(=O)OC)nc2c1 [Albendazole]	inactive: 0

Same assay, conditions: library: Spectrum; 2 uM; 4 weeks; BDNF 10 ng/ml + GDNF 10 ng/ml

Compound	dopaminergic neuron differentiation score
CC(C)(C)CC(C)(C)c1ccc(O)c(Cc2ccc(Cl)cc2Cl)c1	inactive: 0
O=C1OCCN1/N=C/c1ccc([N+](=O)[O-])o1	inactive: 0
CC(=O)Oc1ccccc1C(=O)O	inactive: 0
CCn1cc(C(=O)O)c(=O)c2cc(F)c(N3CCNC(C)C3)c(F)c21 (centres undefined)	inactive: 0
COc1c(O)cc(O)cc1O	inactive: 0
Clc1ccccc1CN1CCc2sccc2C1	inactive: 0
C#C[C@]1(O)CC[C@H]2[C@@H]3[C@H](C)CC4=C(CCC(=O)C4)[C@H]3CC[C@@]21C	inactive: 0
CCCCCC(=O)Cc1cc(O)cc(O)c1C(=O)Oc1cc(CC(=O)CCCCC)c(C(=O)O)c(OC)c1	inactive: 0
CC1(C)C(=O)C=C[C@]2(C)[C@H]3CC[C@@]4(C)[C@H](c5ccoc5)OC(=O)[C@H]5O[C@]54[C@]3(C)C(=O)C[C@@H]12	inactive: 0
CC(=O)Oc1cc(OC(C)=O)c2c(c1)O[C@H](c1ccc(OC(C)=O)c(OC(C)=O)c1)[C@H](OC(C)=O)C2	inactive: 0
CC(C)=CC1C(C(=O)O)C1(C)C (centres undefined)	inactive: 0
CC(COc1ccccc1)NC(C)C(O)c1ccc(O)cc1 (centres undefined)	inactive: 0
COc1ccc2c(c1OC)C(=O)O[C@@H]2[C@H]1c2c(cc3c(c2OC)OCO3)CCN1C	inactive: 0
CCCCCCCC/C=C/CCCCCCCCOP(=O)([O-])OCC[N+](C)(C)C	inactive: 0
CC(=O)[C@H]1CC[C@H]2[C@@H]3CC=C4C[C@@H](O)CC[C@]4(C)[C@H]3CC[C@]12C	inactive: 0
O=C(C=Cc1ccc(O)cc1)c1ccccc1O	inactive: 0
CN1C2CCCC1CC(NC(=O)c1nn(C)c3ccccc13)C2 (centres undefined)	inactive: 0
O.O.O=C([O-])CN(CCN(CC(=O)[O-])CC(=O)O)CC(=O)O.[Na+].[Na+]	inactive: 0
C[C@H](CCC(=O)O)[C@H]1CC[C@H]2[C@@H]3CC[C@@H]4C[C@H](O)CC[C@]4(C)[C@H]3CC[C@]12C	inactive: 0
O=C(O)C1=C(CSc2nnnn2CS(=O)(=O)O)CS[C@@H]2[C@H](NC(=O)[C@H](O)c3ccccc3)C(=O)N12	inactive: 0
C#C[C@]1(O)CC[C@H]2[C@@H]3CCc4cc(OC)ccc4[C@H]3CC[C@@]21C	inactive: 0

Reprinted from the listing (two entries):
Compound	dopaminergic neuron differentiation score
CCCCCCCC/C=C/CCCCCCCCOP(=O)([O-])OCC[N+](C)(C)C	inactive: 0
CC(=O)[C@H]1CC[C@H]2[C@@H]3CC=C4C[C@@H](O)CC[C@]4(C)[C@H]3CC[C@]12C	inactive: 0

Same assay, conditions: library: Tocriscreen; 2 uM; 4 weeks; BDNF 10 ng/ml + GDNF 10 ng/ml

Compound	dopaminergic neuron differentiation score
Cc1cc2nc3c(=O)[nH]c(=O)nc-3n(C)c2cc1C=O	inactive: 0
COc1ccc(CCN(C)CCCOc2ccc(S(=O)(=O)c3c(C(C)C)c4ccccc4n3C)cc2)cc1OC	inactive: 0
CCCCNC(=O)[C@@H]1Cc2ccccc2N1C(=O)[C@@H](N)CC [Butabindide oxalate]	inactive: 0
O=[N+]([O-])c1cccc2c[nH]nc12	active: 3
CN/C(=N\c1ccc(C2=NNC(=O)CC2C)cc1)NC#N (centres undefined) [Siguazodan]	inactive: 0

— the supplement of paper PMC4635364
